Article PMC10115824
Results are given in words; binding and its absence hold for the method and conditions named. Binding seen in cells or lysates may run through a third protein. Some entries that bind do so weakly or less than the wild type. For some of these results: Where a sequence is shown, tags or fusion partners need not be part of it.

Amino acid sequences for entries named in this document (tags omitted). Residues count along the entry.
UniProt P13596, residues 20-858: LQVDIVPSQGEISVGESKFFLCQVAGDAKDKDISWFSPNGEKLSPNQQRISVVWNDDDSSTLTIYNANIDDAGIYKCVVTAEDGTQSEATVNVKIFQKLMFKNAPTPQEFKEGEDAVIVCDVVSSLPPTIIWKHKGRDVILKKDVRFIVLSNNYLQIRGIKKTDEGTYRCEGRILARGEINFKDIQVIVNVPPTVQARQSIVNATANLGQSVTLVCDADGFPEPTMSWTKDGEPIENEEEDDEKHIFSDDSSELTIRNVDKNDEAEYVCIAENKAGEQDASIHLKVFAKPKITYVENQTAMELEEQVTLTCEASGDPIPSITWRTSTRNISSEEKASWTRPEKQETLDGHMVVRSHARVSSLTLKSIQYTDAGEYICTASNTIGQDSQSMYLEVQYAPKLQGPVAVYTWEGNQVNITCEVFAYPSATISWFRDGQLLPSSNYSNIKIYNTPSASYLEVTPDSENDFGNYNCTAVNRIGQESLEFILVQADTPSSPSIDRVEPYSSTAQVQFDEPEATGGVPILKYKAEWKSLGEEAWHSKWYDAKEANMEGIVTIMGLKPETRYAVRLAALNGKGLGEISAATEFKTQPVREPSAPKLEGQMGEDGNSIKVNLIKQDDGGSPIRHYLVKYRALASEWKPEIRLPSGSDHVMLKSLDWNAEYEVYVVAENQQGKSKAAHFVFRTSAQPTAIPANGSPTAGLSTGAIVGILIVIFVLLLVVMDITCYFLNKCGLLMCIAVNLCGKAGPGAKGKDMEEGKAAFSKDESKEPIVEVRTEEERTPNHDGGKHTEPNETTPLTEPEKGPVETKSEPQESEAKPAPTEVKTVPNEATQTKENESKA
UniProt P13595, residues 20-1115: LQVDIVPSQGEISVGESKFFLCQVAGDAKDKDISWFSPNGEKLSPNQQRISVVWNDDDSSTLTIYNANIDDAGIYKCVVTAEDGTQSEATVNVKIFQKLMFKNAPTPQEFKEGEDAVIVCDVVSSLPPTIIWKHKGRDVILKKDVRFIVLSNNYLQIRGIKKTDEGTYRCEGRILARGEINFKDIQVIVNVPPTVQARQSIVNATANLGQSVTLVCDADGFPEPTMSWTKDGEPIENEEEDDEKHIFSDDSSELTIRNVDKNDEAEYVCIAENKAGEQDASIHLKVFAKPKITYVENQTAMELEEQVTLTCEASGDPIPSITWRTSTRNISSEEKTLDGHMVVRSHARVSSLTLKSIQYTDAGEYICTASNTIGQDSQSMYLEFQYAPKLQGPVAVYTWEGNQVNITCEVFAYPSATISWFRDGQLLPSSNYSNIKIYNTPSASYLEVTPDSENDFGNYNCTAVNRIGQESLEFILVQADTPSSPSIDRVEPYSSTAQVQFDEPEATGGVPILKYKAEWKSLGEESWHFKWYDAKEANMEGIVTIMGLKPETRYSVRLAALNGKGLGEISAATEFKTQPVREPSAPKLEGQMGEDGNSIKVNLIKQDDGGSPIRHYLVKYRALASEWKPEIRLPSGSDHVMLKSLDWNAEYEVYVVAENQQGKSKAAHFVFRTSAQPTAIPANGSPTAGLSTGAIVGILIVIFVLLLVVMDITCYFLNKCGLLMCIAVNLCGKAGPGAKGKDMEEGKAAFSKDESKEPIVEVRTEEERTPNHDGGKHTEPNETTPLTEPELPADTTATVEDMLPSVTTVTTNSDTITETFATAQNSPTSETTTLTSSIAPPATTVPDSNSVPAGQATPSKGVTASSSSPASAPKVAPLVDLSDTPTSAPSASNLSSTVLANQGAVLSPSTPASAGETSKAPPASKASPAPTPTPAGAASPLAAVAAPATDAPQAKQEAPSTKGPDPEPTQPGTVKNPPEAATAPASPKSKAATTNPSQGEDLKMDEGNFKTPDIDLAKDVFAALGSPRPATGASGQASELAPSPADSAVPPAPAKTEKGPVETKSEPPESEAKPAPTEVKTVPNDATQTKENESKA

Legend:
Test in all cases: co-IP; reciprocal immunoprecipitations (anti-KLK8, anti-NCAM1) from rat hippocampus tissue and HT22 cell lysates, western blot; IgG as control
[1] = molecular target: T1, Tissue kallikrein-related peptidase 8 (KLK8) in HT22 cells (not stated (HT22 murine cells; endogenous or from Ad-KLK8 not told)) (UniProt Q61955)
T1 sequence: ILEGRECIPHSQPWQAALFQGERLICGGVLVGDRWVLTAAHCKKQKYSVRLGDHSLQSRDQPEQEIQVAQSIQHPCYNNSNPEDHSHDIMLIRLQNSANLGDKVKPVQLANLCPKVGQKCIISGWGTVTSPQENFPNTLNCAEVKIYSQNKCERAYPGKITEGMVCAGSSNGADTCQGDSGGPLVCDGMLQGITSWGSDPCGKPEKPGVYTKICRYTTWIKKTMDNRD

[2] = molecular target: T2, Tissue kallikrein-related peptidase 8 (KLK8) in rat hippocampus (not stated (rat hippocampus; species of the transgene not told)) (UniProt O88780)
T2 sequence: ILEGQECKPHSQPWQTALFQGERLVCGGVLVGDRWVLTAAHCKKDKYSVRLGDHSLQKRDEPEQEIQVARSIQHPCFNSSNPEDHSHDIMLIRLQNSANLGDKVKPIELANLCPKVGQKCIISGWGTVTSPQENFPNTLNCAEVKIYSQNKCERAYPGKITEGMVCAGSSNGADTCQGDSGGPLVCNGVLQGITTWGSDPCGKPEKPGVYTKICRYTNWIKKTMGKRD

[3] = molecular target: Neural cell adhesion molecule 1 (NCAM1) in rat hippocampus (rat (endogenous in rat hippocampus)) (UniProt P13596)
[4] = molecular target: Neural cell adhesion molecule 1 (NCAM1) in HT22 cells (mouse (endogenous in HT22)) (UniProt P13595)

Neural cell adhesion molecule 1 (NCAM1) in HT22 cells (from UniProt P13595 20-1115)
binding [1]: binds

Neural cell adhesion molecule 1 (NCAM1) in rat hippocampus (from UniProt P13596 20-858)
binding [2]: binds

B1: Tissue kallikrein-related peptidase 8 (KLK8) in rat hippocampus (enzyme, UniProt O88780 33-260)
chain: ILEGQECKPHSQPWQTALFQGERLVCGGVLVGDRWVLTAAHCKKDKYSVRLGDHSLQKRDEPEQEIQVARSIQHPCFNSSNPEDHSHDIMLIRLQNSANLGDKVKPIELANLCPKVGQKCIISGWGTVTSPQENFPNTLNCAEVKIYSQNKCERAYPGKITEGMVCAGSSNGADTCQGDSGGPLVCNGVLQGITTWGSDPCGKPEKPGVYTKICRYTNWIKKTMGKRD
binding [3]: binds

B2: Tissue kallikrein-related peptidase 8 (KLK8) in HT22 cells (enzyme, UniProt Q61955 33-260)
chain: ILEGRECIPHSQPWQAALFQGERLICGGVLVGDRWVLTAAHCKKQKYSVRLGDHSLQSRDQPEQEIQVAQSIQHPCYNNSNPEDHSHDIMLIRLQNSANLGDKVKPVQLANLCPKVGQKCIISGWGTVTSPQENFPNTLNCAEVKIYSQNKCERAYPGKITEGMVCAGSSNGADTCQGDSGGPLVCDGMLQGITSWGSDPCGKPEKPGVYTKICRYTTWIKKTMDNRD
binding [4]: binds
